Laboratory results from patent publication US10139415B2, “Method for predicting responsiveness to compound inhibiting MAPK signal transduction pathway” (DAIICHI SANKYO COMPANY, LIMITED, priority 2013, dated 2018).
At least one structure is not confirmed: it was looked up by name or label, or the drawing left a doubt.

Columns and labels:
Assay in all cases: cell growth-suppressive activity test
Format in all cases: cell-based
Settings in all cases: 2D and 3D culture, 72 hours, CellTiter-Glo
colo-205 cells = test system: colo-205 cells
Procedure: (§1) A cell growth-suppressive activity test was performed in both of two-dimensional culture and three-dimensional culture. First, a plate for three-dimensional culture was produced. Specifically, poly(2-hydroxyethyl methacrylate) (hereinafter abbreviated as poly-HEMA, manufactured by Sigma) was added to 95% ethanol so that the concentration was 5 mg/mL, and dissolved therein at 37° C. overnight. The solution was used as a poly-HEMA solution. The solution was loaded into a 96-well plate (manufactured by Nunc) at 50 μL/well. The plate was dried at 37° C. to produce a plate for three-dimensional culture coated with poly-HEMA.
(§2) The two-dimensional culture (hereinafter sometimes referred to as 2D culture) and the three-dimensional culture (hereinafter sometimes referred to as 3D culture) were performed by seeding the cells in a 96-well plate at 1×10^3 cells/150 μL/well and 2×10^3 cells/75 μL/well, respectively, and performing drug treatment on the following day. The total volume was set to 200 μL in the two-dimensional culture, and the total volume was set to 100 μL in the three-dimensional culture. Cell growth was measured by measuring intracellular ATP amounts at the time of the drug treatment and 72 hours after the drug treatment. Specifically, after the removal of the culture medium at 100 μL/well, CellTiter-Glo (manufactured by Promega) was added at 50 μL/well in the two-dimensional culture, and CellTiter-Glo was added at 50 μL/well in the three-dimensional culture. After the addition, the plate was shaken with a shaker for 2 minutes and left to stand still at room temperature for 10 minutes. The total volume of each well was transferred to a white 96-well plate (manufactured by Nunc) and measured for its light emission intensity with a Wallac 1420 multilabel counter (manufactured by Perkin Elmer). From the resultant light emission amount, a growth ratio (Growth (%)) relative to a non-drug-treated sample after 72 hours was determined using the following mathematical formula 1 and mathematical formula 2.

colo-201 cells = test system: colo-201 cells
Procedure: as §1, §2

HCT_116 cells = test system: HCT_116 cells
Procedure: as §1, §2

SK-MEL-1 cells = test system: SK-MEL-1 cells
Procedure: as §1, §2

SW48 cells = test system: SW48 cells
Procedure: as §1, §2

Measured: sensitivity in growth-suppressive activity test (from GI50)

O=c1cc(N2CCOCC2)oc2c(-c3ccccc3)cccc12 [LY294002]
low sensitivity: all assays above
